Measured values: paper PMC4273223 (Beilstein Journal of Organic Chemistry, 2014)

Test: general procedure: solution-phase peptide synthesis; EDC/HOAt/TMP (2,4,6-collidine); HATU/HOAt/DIEA/2,4,6-collidine
Conditions: coupling step

For “Fmoc-(βMe)Phe-(R)dFmcpA-(βMe)Phe-Ile-ODCPM”, the step yield was 81%.

With “Boc-(4-Pe)Pro-[MeZ-a-Thr]-(βMe)Phe-(S)dFmcpA-(βMe)Phe-Ile-ODCPM” the step yield was 90%.

“Fmoc-(βMe)Phe-(R)tFmcpA-(βMe)Phe-Ile-ODCPM” gave a step yield of 93%.

In the case of “Boc-(4-Pe)Pro-[MeZ-a-Thr]-(βMe)Phe-(S)tFmcpA-(βMe)Phe-Ile-ODCPM”, the step yield is reported as 92%.
